Reference: the supplement of paper PMC10849652
The list shows a part of the results.

The chains behind the UniProt entries cited, without tags or fusion partners. Where a name states a change or a piece, a line headed by the entry shows the natural chain unless it says otherwise.
UniProt O75818: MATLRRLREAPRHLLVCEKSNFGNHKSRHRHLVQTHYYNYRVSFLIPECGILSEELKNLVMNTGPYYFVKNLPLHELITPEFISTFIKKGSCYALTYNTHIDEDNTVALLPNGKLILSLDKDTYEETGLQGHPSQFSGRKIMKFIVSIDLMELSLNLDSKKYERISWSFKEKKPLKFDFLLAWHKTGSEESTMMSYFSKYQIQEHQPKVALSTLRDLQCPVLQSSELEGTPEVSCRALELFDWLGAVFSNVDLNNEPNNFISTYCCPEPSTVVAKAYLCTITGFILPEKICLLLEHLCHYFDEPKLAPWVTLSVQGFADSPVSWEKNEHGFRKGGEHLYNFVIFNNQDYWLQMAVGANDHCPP
UniProt Q9P2E9: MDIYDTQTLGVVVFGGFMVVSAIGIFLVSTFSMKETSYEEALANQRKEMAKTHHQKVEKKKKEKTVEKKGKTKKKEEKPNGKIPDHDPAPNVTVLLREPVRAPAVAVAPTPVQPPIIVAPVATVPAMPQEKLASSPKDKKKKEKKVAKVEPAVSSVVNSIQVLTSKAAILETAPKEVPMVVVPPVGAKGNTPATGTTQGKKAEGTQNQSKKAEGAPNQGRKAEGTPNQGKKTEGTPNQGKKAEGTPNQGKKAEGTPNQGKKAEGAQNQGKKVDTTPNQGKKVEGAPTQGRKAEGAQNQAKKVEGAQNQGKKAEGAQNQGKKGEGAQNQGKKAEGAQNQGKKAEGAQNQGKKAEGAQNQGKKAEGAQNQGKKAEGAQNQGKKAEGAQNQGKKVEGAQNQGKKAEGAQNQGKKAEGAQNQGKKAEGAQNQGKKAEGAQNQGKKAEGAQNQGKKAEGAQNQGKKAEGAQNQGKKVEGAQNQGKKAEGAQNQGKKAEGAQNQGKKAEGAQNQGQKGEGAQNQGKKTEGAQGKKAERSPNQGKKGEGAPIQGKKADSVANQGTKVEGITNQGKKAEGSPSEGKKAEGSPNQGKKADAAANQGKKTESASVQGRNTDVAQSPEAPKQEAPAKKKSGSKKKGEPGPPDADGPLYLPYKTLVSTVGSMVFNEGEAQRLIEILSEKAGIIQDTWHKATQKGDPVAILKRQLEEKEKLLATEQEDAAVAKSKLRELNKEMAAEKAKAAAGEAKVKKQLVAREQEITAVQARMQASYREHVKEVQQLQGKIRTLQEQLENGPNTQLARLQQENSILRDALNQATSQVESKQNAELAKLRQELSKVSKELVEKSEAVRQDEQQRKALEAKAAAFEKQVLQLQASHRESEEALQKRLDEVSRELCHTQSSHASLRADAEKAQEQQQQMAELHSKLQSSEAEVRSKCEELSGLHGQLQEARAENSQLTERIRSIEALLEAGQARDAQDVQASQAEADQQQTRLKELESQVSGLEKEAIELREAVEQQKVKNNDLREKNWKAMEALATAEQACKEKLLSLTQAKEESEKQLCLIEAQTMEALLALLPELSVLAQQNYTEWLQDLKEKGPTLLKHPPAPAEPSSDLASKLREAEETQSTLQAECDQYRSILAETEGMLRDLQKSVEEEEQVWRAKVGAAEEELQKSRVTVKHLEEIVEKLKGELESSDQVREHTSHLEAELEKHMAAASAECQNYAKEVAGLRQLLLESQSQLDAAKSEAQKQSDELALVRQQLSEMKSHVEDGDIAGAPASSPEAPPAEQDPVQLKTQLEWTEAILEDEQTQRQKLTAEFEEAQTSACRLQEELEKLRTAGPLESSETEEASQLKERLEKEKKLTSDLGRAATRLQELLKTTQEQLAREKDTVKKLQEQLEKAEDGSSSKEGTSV
UniProt P78346: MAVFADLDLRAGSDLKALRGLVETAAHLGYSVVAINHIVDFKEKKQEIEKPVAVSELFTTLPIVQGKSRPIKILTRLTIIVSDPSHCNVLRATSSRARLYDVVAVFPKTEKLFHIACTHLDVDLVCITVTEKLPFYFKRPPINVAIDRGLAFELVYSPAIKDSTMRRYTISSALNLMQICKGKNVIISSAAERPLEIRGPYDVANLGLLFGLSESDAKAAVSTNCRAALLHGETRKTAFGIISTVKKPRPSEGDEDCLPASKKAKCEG
UniProt Q5JTH9: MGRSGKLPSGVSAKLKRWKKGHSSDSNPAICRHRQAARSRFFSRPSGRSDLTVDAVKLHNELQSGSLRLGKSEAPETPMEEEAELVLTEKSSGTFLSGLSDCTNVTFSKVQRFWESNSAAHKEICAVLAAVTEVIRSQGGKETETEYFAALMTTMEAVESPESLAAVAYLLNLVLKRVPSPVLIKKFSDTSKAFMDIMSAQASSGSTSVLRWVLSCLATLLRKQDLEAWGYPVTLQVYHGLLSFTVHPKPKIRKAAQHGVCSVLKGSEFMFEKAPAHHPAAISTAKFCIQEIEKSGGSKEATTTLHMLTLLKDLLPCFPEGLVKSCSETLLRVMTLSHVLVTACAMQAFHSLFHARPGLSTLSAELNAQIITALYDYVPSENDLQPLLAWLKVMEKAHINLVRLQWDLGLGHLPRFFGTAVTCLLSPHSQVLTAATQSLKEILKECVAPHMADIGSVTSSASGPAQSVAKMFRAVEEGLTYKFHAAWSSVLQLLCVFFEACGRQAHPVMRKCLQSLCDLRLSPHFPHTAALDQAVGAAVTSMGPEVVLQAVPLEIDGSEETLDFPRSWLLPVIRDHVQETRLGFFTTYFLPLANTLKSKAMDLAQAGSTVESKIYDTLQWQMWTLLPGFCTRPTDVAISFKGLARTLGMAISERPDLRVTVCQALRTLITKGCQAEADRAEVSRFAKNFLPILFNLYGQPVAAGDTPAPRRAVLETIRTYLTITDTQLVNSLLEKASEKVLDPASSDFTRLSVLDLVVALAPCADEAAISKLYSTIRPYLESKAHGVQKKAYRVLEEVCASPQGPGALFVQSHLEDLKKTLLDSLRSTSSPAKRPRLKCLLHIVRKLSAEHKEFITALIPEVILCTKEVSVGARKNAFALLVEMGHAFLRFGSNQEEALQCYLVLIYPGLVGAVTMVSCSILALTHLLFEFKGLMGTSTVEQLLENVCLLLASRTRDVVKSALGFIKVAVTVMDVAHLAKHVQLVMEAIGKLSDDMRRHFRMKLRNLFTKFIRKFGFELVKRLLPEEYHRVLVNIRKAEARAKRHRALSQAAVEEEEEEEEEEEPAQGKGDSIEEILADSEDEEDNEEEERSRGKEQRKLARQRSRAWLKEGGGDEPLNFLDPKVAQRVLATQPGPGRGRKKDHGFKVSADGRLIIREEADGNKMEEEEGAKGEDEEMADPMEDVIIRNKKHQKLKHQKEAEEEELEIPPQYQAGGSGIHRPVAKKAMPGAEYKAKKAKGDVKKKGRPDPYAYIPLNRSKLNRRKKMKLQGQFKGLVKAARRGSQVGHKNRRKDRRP
UniProt P31350, whole entry, looked up: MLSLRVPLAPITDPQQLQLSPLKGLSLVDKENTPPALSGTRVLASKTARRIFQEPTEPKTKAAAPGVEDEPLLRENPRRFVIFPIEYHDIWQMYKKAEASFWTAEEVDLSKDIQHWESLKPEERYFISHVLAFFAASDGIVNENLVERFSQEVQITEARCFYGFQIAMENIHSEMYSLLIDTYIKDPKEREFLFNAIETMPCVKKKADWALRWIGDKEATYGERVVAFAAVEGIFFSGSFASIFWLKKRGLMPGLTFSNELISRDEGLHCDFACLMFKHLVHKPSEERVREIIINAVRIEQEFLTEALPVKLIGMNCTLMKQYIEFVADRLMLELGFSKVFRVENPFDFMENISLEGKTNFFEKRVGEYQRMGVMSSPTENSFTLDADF

Columns and labels:
Assay in all cases: log2 fold change, soluble protein after heating vs DMSO (PISA); higher = thermal stabilisation; K562 lysate, 10 uM; active = over 0.2 and 3.5 SD of the protein, either way, in both replicates (recomputed)
[1] = compound: C1=CC=C(C=C1)[C@H](COC2=CC3=C(C=C2)NC(=O)N3)NC(=O)C4=CC=CN(C4=O)CC5=CC(=C(C=C5)F)F
Procedure, shortened: (§1)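 K562 pellets were dounce-homogenised in PBS pH 7.4 containing 1 mM MgCl2, and the crude extract, at 1 mg/mL protein, was exposed to 10 μM compound for 30 min. Aliquots were heated for 3 min across 48°C-58°C, pooled, brought to 0.5% NP-40 at 4°C and spun at 21,000xg for 90 min, with the supernatant taken as soluble protein. TMTpro 16plex LC-MS/MS with equalised channel sums quantified that protein. Values are log-two fold changes in thermal stability relative to solvent controls, taken from duplicates.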

[2] = compound: CC1=C(SC2=C1C(=N[C@H](C3=NN=C(N32)C)CC(=O)N)C4=CC=C(C=C4)Cl)C
Procedure, shortened: as §1

[3] = compound: CC1=C2C(=CC=C1)N=C(N(C2=O)C3=CC=CC=C3C)CN4C=NC5=C(N=CN=C54)N
Procedure, shortened: as §1

[4] = compound: Cc1sc2c(c1C)C(c1ccc(Cl)cc1)=N[C@@H](CC(=O)OC(C)(C)C)c1nnc(C)n1-2
Procedure, shortened: as §1

[5] = compound: c1ccc([C@@H]2C[C@H]2NC2CCNCC2)cc1
Procedure, shortened: as §1

Measured: log2 fold change

RPS27 (UniProt P42677)
inactive: [1] 0.011 | [2] 0.049 | [3] -0.043 | [4] 0.025 | [5] 0.096

RPS6 (UniProt P62753)
inactive: [1] -0.002 | [2] 0.044 | [3] 0.041 | [4] -0.01 | [5] -0.047

RPP40 (UniProt O75818)
inactive: [1] -0.017 | [2] -0.021 | [3] -0.011 | [4] 0.056 | [5] 0.038

RRBP1 (UniProt Q9P2E9)
inactive: [1] -0.037 | [2] -0.001 | [3] 0.014 | [4] 0.003 | [5] 0.027

RPP30 isoform 2 (UniProt P78346)
inactive: [1] 0.06 | [2] -0.034 | [3] -0.022 | [4] 0.008 | [5] -0.034

RRP12 (UniProt Q5JTH9)
inactive: [1] -0.029 | [2] 0.021 | [3] 0.018 | [4] -0.006 | [5] 0.072

RPS29 (UniProt P62273)
inactive: [1] 0.047 | [2] -0.055 | [3] -0.071 | [4] 0.328 | [5] 0.398

RPS27L (UniProt Q71UM5)
inactive: [1] -0.08 | [2] 0.086 | [3] 0.014 | [4] 0.044 | [5] 0.072

RRM2 isoform 2 (UniProt P31350)
inactive: [1] 0.088 | [2] 0.022 | [3] -0.029 | [4] 0.069 | [5] 0.044

2 records picked at random from the list so far, as already listed:
RPS29 (UniProt P62273)
inactive: [1] 0.047 | [2] -0.055 | [3] -0.071 | [4] 0.328 | [5] 0.398

RPP30 isoform 2 (UniProt P78346)
inactive: [1] 0.06 | [2] -0.034 | [3] -0.022 | [4] 0.008 | [5] -0.034
